Reference: publication PMC7349982
Results are given in words; binding and its absence hold for the method and conditions named. For some assays here: In cells and extracts the contact can be indirect. Some entries that bind do so weakly or less than the wild type. Where a sequence is shown, tags or fusion partners need not be part of it. Blank lines part the entries; values can stand above or below the binder they belong to.

Columns and labels:
[1] = biological target: T1, SpoIIE (bacterial two-hybrid fusion) (Bacillus subtilis) (UniProt P37475); assay: two-hybrid; bacterial two-hybrid (BACTH): fusions to adenylate cyclase fragments T18 and T25 co-transformed into E. coli BTH101 (Δcya); spotted on LB plates with X-Gal and 0.5 mM IPTG, 24-48 h at 30 °C; blue colour and β-galactosidase activity (Miller units)
T1 sequence: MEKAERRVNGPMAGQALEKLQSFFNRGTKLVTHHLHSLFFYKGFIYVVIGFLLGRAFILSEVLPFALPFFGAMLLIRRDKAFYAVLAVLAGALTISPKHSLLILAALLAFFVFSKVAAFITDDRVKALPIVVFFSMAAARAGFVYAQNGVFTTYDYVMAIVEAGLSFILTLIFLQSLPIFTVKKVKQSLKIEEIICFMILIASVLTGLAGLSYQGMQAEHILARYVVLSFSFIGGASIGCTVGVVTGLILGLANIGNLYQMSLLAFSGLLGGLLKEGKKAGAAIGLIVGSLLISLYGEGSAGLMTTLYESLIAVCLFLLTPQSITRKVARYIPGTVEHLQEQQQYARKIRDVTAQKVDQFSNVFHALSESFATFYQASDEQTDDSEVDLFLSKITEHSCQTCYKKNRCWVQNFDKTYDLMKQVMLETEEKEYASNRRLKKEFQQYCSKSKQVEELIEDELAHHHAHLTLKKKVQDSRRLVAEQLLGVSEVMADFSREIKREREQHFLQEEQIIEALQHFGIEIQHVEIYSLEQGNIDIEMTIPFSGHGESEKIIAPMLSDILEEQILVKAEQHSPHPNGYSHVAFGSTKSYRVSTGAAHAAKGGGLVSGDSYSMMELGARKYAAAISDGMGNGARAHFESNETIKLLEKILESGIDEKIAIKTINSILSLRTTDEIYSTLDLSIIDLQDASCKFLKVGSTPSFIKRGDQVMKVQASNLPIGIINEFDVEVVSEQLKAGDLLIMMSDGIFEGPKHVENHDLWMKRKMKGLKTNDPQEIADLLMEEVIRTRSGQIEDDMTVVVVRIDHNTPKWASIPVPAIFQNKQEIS

[2] = biological target: T2, His-tagged GpsB (Bacillus subtilis) (UniProt P0CI74); assay: pull-down; His-GpsB held on a 1 mL Ni Sepharose HP column from E. coli BL21 (DE3) lysate (20 mM Tris-HCl pH 8.0, 150 mM NaCl); eluted with 1 M imidazole; cyt-SpoIIE-S detected by Western blot with an anti-S-tag antibody
T2 sequence: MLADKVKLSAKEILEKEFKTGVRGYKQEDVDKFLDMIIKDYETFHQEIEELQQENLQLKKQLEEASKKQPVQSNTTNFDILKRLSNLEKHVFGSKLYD

B1: PBP1 (bacterial two-hybrid fusion) (protein, UniProt P39793 1-914)
chain: MSDQFNSREARRKANSKSSPSPKKGKKRKKGGLFKKTLFTLLILFVLGVVGGAVTFAVMVSDAPSLDESKLKTPYSSTIYDKNGKEIAEVGAEKRTYVSIDEIPDVVKEAFIATEDARFYEHHGIDPVRIGGALVANFKDGFGAEGGSTITQQVVKNSLLSHQKTLKRKVQEVWLSIQLERNYSKDEILEMYLNRIYFSPRAYGIGKAAEEFFGVTDLSKLTVEQAATLAGMPQSPTAYNPVKNPDKAEKRRNIVLSLMKKQGFISDSQYNKAKKVAVKDEGVVSQKEYEKASTNKYSAFVEEVMKEIDEKSDVDPSADGLKIYTTLDTKAQDKLDELMDGDTVGFTEGMQGGVTLLDTKNGEVRAIGAGRNQPVGGFNYATQTKAQPGSTIKPILDYGPVIENKKWSTYEQIDDSAYTYSNGKPIRDWDRKYLGPISMRYALAQSRNIPALKAFQAVGKDTAVDFANGLGLGLTKDNVTEAYSIGGFGGNDGVSPLTMAGAYSAFGNNGTYNEPHFVKSIEFNDGTKLDLTPKSKSAMSDYTAFMITDMLKTAVKTGTGQLAQVPGVEVAGKTGTTNFDDNEVKRYNIASGGARDSWFVGYTPQYTAAVWTGMGENEAGKKSLSAEEQKVAKRIFAQLIADVDDGSGSFEKPDSVVEATVEKGSNPAKLAGPNTPSDKKLTEYFVKGTAPSTVSKTYEKEEKEETAKLSGLNVKYDKDNQSLTLSWNYDGDATFAVKQSVDGGSYSEIQNSSAKEAVISGVQPGSVYKFEVTAVSDDGKSTASTSYEVPKAEDDEDKKDQQQTDDEKQDDEKTQDDTQTDDSQKDDGQTDQDQTDDSTNDQDKKQDNTNTNPSDNNNQDQSNDNDNDNSNNQDTSDGDSNSGKNDSTGSDTNKNKTDTSNKTQTNSSSIEKTN
binding [1]: binds

B2: GpsB (bacterial two-hybrid fusion) (protein, UniProt P0CI74 1-98)
chain: T2 sequence
binding [1]: binds

B5: EzrA (bacterial two-hybrid fusion) (protein, UniProt O34894 1-562)
chain: MEFVIGLLIVLLALFAAGYFFRKKIYAEIDRLESWKIEILNRSIVEEMSKIKHLKMTGQTEEFFEKWREEWDEIVTAHMPKVEELLYDAEENADKYRFKKANQVLVHIDDLLTAAESSIEKILREISDLVTSEEKSREEIEQVRERYSKSRKNLLAYSHLYGELYDSLEKDLDEIWSGIKQFEEETEGGNYITARKVLLEQDRNLERLQSYIDDVPKLLADCKQTVPGQIAKLKDGYGEMKEKGYKLEHIQLDKELENLSNQLKRAEHVLMTELDIDEASAILQLIDENIQSVYQQLEGEVEAGQSVLSKMPELIIAYDKLKEEKEHTKAETELVKESYRLTAGELGKQQAFEKRLDEIGKLLSSVKDKLDAEHVAYSLLVEEVASIEKQIEEVKKEHAEYRENLQALRKEELQARETLSNLKKTISETARLLKTSNIPGIPSHIQEMLENAHHHIQETVNQLNELPLNMEEAGAHLKQAEDIVNRASRESEELVEQVILIEKIIQFGNRFRSQNHILSEQLKEAERRFYAFDYDDSYEIAAAAVEKAAPGAVEKIKADISA
binding [1]: binds

Second part, the binder after the results:

binding [1]: binds
B3: PBP4b (bacterial two-hybrid fusion) (protein, UniProt O32032 1-584)
chain: MKISKRMKLAVIAFLIVFFLLLLRLAEIQLFFTESFSKKKINLIQESVKQRTEEVLISDGRGSFLDRNGRALTGQSEPAVVLFPFLLTQDWPIKKVADILGMSEDDLRQTLGQAKKPVILQQKKIKTLSKQSITKINSLKYPGIYGVYMENEDKPSLASHTIGSTNQDPALLRKKYPDKESLPITTEIGTTGLERTFDEFLLPEQDTKLLYHVDGKGNPLFGMDVKYTAEANTFYPLQIKTTIDQSIQKAMEEVLDEQGLKKGGAVLLDIENSSVLGIVSKPDADVSRQNTLQNYMLTPIYPGSVFKTVIAAAAIENNMVKPSQTFNCNLNLYGEPGDDKGTLSFDESFAQSCNYTFTSLAEQLMKKDSSVIEDMSEKLALTDRAGWEGKLYHETDFRQLYNEKSGVIWGDEKDKSVKKAIAQTAIGQKNVKVTPLEVANMMATIARGGEKRQVKIAEQIEYKNGTTLVTFKDQKLKGETIDKYTSQQLQKILRRVVESPSGTGRRFQDLPYTVAGKSGTAQTGKLSKEKETLYEKWFAGYFPADKPKYALVVLHMDTPGDKALTNSVFYDIVKKVHEIEINQK

binding [2]: binds
B4: cyt-SpoIIE-S (SpoIIE-S domain II+III) (domain or fragment, UniProt P37475 332-827)
chain: IPGTVEHLQEQQQYARKIRDVTAQKVDQFSNVFHALSESFATFYQASDEQTDDSEVDLFLSKITEHSCQTCYKKNRCWVQNFDKTYDLMKQVMLETEEKEYASNRRLKKEFQQYCSKSKQVEELIEDELAHHHAHLTLKKKVQDSRRLVAEQLLGVSEVMADFSREIKREREQHFLQEEQIIEALQHFGIEIQHVEIYSLEQGNIDIEMTIPFSGHGESEKIIAPMLSDILEEQILVKAEQHSPHPNGYSHVAFGSTKSYRVSTGAAHAAKGGGLVSGDSYSMMELGARKYAAAISDGMGNGARAHFESNETIKLLEKILESGIDEKIAIKTINSILSLRTTDEIYSTLDLSIIDLQDASCKFLKVGSTPSFIKRGDQVMKVQASNLPIGIINEFDVEVVSEQLKAGDLLIMMSDGIFEGPKHVENHDLWMKRKMKGLKTNDPQEIADLLMEEVIRTRSGQIEDDMTVVVVRIDHNTPKWASIPVPAIFQNKQEIS
